This assay has as its target LexA-C58VirFmut (Agrobacterium tumefaciens C58-C1). Kind of assay: two-hybrid; yeast strain L40 co-transformed with LexA fusions (pSTT91) and Gal4AD fusions (pGAD424); interaction read as histidine prototrophy, growth on SD-Leu-Trp-His, 2-3 days at 28 °C.

No constants are given. Whether binding was seen depends on the method and setting.

B1: Gal4AD-VIP1 (protein, UniProt Q9MA75 1-341)
chain: MEGGGRGPNQTILSEIEHMPEAPRQRISHHRRARSETFFSGESIDDLLLFDPSDIDFSSLDFLNAPPPPQQSQQQPQASPMSVDSEETSSNGVVPPNSLPPKPEARFGRHVRSFSVDSDFFDDLGVTEEKFIATSSGEKKKGNHHHSRSNSMDGEMSSASFNIESILASVSGKDSGKKNMGMGGDRLAELALLDPKRAKRILANRQSAARSKERKIRYTGELERKVQTLQNEATTLSAQVTMLQRGTSELNTENKHLKMRLQALEQQAELRDALNEALRDELNRLKVVAGEIPQGNGNSYNRAQFSSQQSAMNQFGNKTNQQMSTNGQPSLPSYMDFTKRG
Take B1: the binding result is on record as “no binding”.
